The series is described as follows: Base generation temperature by differential scanning calorimetry. In kind it is physicochemical. As to conditions: DSC, heated to 250° C. at 5° C./min in pressure-resistant capsule; peak temperature of lowest exothermic peak. The procedure:
The base generation temperature may be measured, for example, by heating a compound to 250° C. at a rate of 5° C./minute in a pressure-resistant capsule, reading a peak temperature of an exothermic peak having the lowest temperature, and taking the peak temperature as a base generation temperature, using differential scanning calorimetry.
Using differential scanning calorimetry (Q2000, manufactured by TA), (A) a thermal base generator was heated to 250° C. at 5° C./min in a pressure-resistant capsule. The peak temperature of an exothermic peak having the lowest temperature was read to measure such a peak temperature as a base generation temperature.
On the technique in general: Differential scanning calorimetry records heat flow against a reference as temperature is scanned.

For `C1CNC2=[N+](C1)CCC2.O=C([O-])C(=O)O` [A-35], the Base generation temperature came out at 80 °C.
